Laboratory results reported in patent US20260273014A1, “Herbal composition for metabolic syndromes and method of treatment thereof” (priority 2019, published 2026).
At least one structure is not confirmed: it was looked up by name or label, or the drawing left a doubt.

Tests used:
β-cell = β-cell studies: insulin production / glucose-mediated beta-cell stimulation (FIG. 4a, 4b); assay type: cell-based; settings: unpublished
diabetic rats = settings: cited from earlier work

## O=c1c2cc(O)c(O)cc2oc2cc(O)c([C@@H]3O[C@H](CO)[C@@H](O)[C@H](O)[C@H]3O)c(O)c12 [mangiferin]
β-cell; at 1 hr
  insulin: increasingly reduced insulin
β-cell; between 15-30 min. period
  insulin production: increased insulin production
Diabetic rats
  DPPIV enzyme: inhibition of DPPIV enzyme
  glucose tolerance test: improved glucose tolerance test
  insulin secretion: increased insulin secretion
